No constants are given. Whether binding was seen depends on the method and setting. Binding seen in cells or lysates may run through a third protein. Some results given as binding are weak or reduced against the parent protein; the word gives no strength. Sequences can lack the tags named with a protein.
B1: syntaxin-3 (endogenous) (protein, UniProt Q13277 1-289)
chain: MKDRLEQLKAKQLTQDDDTDAVEIAIDNTAFMDEFFSEIEETRLNIDKISEHVEEAKKLYSIILSAPIPEPKTKDDLEQLTTEIKKRANNVRNKLKSMEKHIEEDEVRSSADLRIRKSQHSVLSRKFVEVMTKYNEAQVDFRERSKGRIQRQLEITGKKTTDEELEEMLESGNPAIFTSGIIDSQISKQALSEIEGRHKDIVRLESSIKELHDMFMDIAMLVENQGEMLDNIELNVMHTVDHVEKARDETKKAVKYQSQARKKLIIIIVLVVVLLGILALIIGLSVGLN
B2: Tspan-8·GFP (tetraspanin-8 tagged with sfGFP at the endogenous TSPAN8 locus) (protein, UniProt P19075 1-237)
chain: MAGVSACIKYSMFTFNFLFWLCGILILALAIWVRVSNDSQAIFGSEDVGSSSYVAVDILIAVGAIIMILGFLGCCGAIKESRCMLLLFFIGLLLILLLQVATGILGAVFKSKSDRIVNETLYENTKLLSATGESEKQFQEAIIVFQEEFKCCGLVNGAADWGNNFQHYPELCACLDKQRPCQSYNGKQVYKETCISFIKDFLAKNLIIVIGISFGLAVIEILGLVFSMVLYCQIGNK
B3: Munc18-2 (endogenous) (protein, UniProt Q15833 1-593)
chain: MAPSGLKAVVGEKILSGVIRSVKKDGEWKVLIMDHPSMRILSSCCKMSDILAEGITIVEDINKRREPIPSLEAIYLLSPTEKSVQALIKDFQGTPTFTYKAAHIFFTDTCPEPLFSELGRSRLAKVVKTLKEIHLAFLPYEAQVFSLDAPHSTYNLYCPFRAEERTRQLEVLAQQIATLCATLQEYPAIRYRKGPEDTAQLAHAVLAKLNAFKADTPSLGEGPEKTRSQLLIMDRAADPVSPLLHELTFQAMAYDLLDIEQDTYRYETTGLSEAREKAVLLDEDDDLWVELRHMHIADVSKKVTELLRTFCESKRLTTDKANIKDLSQILKKMPQYQKELNKYSTHLHLADDCMKHFKGSVEKLCSVEQDLAMGSDAEGEKIKDSMKLIVPVLLDAAVPAYDKIRVLLLYILLRNGVSEENLAKLIQHANVQAHSSLIRNLEQLGGTVTNPGGSGTSSRLEPRERMEPTYQLSRWTPVIKDVMEDAVEDRLDRNLWPFVSDPAPTASSQAAVSARFGHWHKNKAGIEARAGPRLIVYVMGGVAMSEMRAAYEVTRATEGKWEVLIGSSHILTPTRFLDDLKALDKKLEDIALP

Sequences of proteins named here, by UniProt entry; tags and fusion partners are left off.
UniProt P61764: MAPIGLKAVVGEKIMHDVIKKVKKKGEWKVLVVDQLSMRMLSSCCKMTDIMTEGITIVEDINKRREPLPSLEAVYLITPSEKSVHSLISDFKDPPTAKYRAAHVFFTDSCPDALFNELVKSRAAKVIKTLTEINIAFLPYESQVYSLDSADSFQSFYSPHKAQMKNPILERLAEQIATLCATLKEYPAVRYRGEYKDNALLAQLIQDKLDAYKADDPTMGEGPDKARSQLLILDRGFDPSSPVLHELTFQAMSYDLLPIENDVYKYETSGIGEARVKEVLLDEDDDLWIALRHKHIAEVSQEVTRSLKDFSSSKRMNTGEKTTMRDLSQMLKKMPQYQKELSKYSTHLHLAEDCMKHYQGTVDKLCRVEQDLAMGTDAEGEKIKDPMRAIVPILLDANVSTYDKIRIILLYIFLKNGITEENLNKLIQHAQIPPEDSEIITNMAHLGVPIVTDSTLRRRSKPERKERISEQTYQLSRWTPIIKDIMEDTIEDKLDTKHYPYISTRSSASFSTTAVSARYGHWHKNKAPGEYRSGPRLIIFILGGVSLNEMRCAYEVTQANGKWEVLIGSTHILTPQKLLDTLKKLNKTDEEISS

Assays:
[1] = target: T1, Tspan-8·GFP (transiently transfected) (UniProt P19075); test: co-IP; GFP immunoprecipitation from cells transiently co-transfected with Tspan-8·GFP and Stx2·FLAG; western blot; controls no transfection and Tspan-8·RFP transfection
T1 sequence: B2 chain

[2] = target: T2, Tspan-8·GFP (tetraspanin-8 tagged with sfGFP at the endogenous TSPAN8 locus) (human (endogenous in HT29-N2)) (UniProt P19075); test: co-IP; GFP-Trap agarose IP of Tspan-8·GFP (WT or d234-237) from lysates of differentiated HT29-N2 cells; lysis buffer Tris 50 mM, NaCl 150 mM, pH 7.3, Triton X-100 1%; 60 min at 4 °C; western blot; controls RFP immunoprecipitation or WT HT29-N2 cells
T2 sequence: B2 chain

[3] = target: T3, Vesicle-associated membrane protein 8 (endogenous) (human (endogenous in HT29-N2)) (UniProt Q9BV40); test: co-IP; VAMP-8 immunoprecipitation from lysates of HT29-N2 cells genetically modified to express Tspan-8·GFP; western blot; uncoated beads as control
T3 sequence: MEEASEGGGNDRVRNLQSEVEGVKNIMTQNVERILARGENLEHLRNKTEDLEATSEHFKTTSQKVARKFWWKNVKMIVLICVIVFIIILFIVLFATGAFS

Molecule | binding [1] | also measured
Munc18-1 (endogenous) (from UniProt P61764 1-594) | no binding | 
B1 |  | binding [2]: binds
B2 |  | binding [3]: no binding
B3 | no binding | 

From publication PMC10287693
